Measured values reported in patent publication US20190127468A1.
Results are given in words; binding and its absence hold for the method and conditions named. Some results given as binding are weak or reduced against the parent protein; the word gives no strength.

By UniProt entry, the sequences of proteins in these tests, tags left out. Residues count along the entry.
UniProt P09793, residues 36-162: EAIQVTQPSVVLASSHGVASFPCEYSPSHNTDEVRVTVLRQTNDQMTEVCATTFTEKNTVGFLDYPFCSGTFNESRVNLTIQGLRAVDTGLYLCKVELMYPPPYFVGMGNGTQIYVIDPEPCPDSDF
UniProt P16410, residues 37-162: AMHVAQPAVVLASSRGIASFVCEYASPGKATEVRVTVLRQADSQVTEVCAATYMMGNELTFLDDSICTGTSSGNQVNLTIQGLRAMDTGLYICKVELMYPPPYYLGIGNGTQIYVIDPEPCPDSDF

What was measured:
[1] = target: mouse CTLA4-Fc fusion protein (mouse) (UniProt P09793); assay: ELISA, plate-coated mCTLA4-Fc, biotinylated L3D10; weak, taken as non-specific signal
[2] = target: Control IgG1-Fc (human) [IgG part: P01857]; assay: ELISA, plate-coated IgG1-Fc, biotinylated L3D10
[3] = target: human CTLA4-Fc fusion protein (biotinylated, used in the blocking studies) (human) (UniProt P16410); assay: ELISA, antibody coated on plate, soluble CTLA4
[4] = target: human CTLA4-Fc fusion protein (biotinylated, used in the blocking studies) (human) (UniProt P16410); assay: ELISA, antibody coated on plate, soluble CTLA4 as in FIG. 37
[5] = target: human CTLA4-Fc fusion protein (biotinylated, used in the blocking studies) (human) (UniProt P16410); assay: capture ELISA as in FIG. 37: antibody coated on the plate at the given concentration, biotinylated CTLA4-Fc 0.25 µg/ml, HRP-streptavidin, OD450
[6] = target: human CTLA4-Fc fusion protein (biotinylated, used in the blocking studies) (human) (UniProt P16410); assay: ELISA, plate-coated CTLA4-Ig, antibody in solution
[7] = target: huCTLA4 (antigen of the Octet experiments) (human) (UniProt P16410); assay: BLI (Octet), summary of Table 5

Measured: binding

B1: chimeric L3D10 antibody (antibody, V domains shown)
VH: QVQLKESGPGLVAPSQSLSITCTVSGFSLTSYGLSWVRQPPGKGLEWLGVIWYDGNTNFHSALISRLTISKDNSKSQVFLELNSLQTDDTATYYCAKTEGHYYGSNYGYYALDYWGQGTSVTVSS
VL: DIQMTQSPASLSVSVGETVTITCRASENIYSNLAWYQQKQGKSPQLLVYAATNLADGVPSRFSGSGSGTQYSLKINSLQSEDFGTYFCQHLWGTPYTFGGGTKLEIKR
binds: [1] | [2]

B2: Humanized HC3 + LC3 (PP4638) (antibody, IgG1, V domains shown)
VH: QVQLQESGPGLVKPSETLSLTCTVSGFSLTSYGLSWIRQPPGKGLEWIGYIWYDGNTNFHSPLKSRVTISVDTSKNQFSLKLSSVTAADTAVYYCAKTEGHYYGSNYGYYALDYWGQGTLVTVSS
VL: DIQMTQSPSSLSASVGDRVTITCRASENIYSNLAWYQQKPGKAPKLLIYAATSLQSGVPSRFSGSGSGTDFTLTISSLQPEDFATYYCQHLWGTPYTFGGGTKVEIK
not listed: [1] | [2]
binds: all other assays above
